The record followed here is article PMC7819943, “Rice protein-binding microarrays: a tool to detect cis-acting elements near promoter regions in rice”.

The list shows a part of the results.

In this test the target is T1, OsSMF1 (Oryza sativa, UniProt Q6ZLB0 1-436).
T1 sequence: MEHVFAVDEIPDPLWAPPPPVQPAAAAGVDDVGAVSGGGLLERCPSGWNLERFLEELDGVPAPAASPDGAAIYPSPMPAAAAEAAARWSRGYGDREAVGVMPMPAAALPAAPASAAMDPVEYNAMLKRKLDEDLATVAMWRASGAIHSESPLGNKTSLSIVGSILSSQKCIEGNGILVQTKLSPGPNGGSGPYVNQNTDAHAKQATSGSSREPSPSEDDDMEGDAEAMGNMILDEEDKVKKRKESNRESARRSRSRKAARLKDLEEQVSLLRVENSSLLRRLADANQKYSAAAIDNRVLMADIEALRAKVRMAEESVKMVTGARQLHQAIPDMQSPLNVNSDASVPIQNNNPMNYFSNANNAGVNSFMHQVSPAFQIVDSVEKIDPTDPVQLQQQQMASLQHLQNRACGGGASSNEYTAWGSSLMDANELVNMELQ
Put plainly: protein-binding microarray (RPBM); PBS, 2% BSA, 51.3 ng/ul salmon testes DNA, 50 uM zinc acetate, 200 nM TF, 25 C, 1 h; high values mean tight binding. Conditions: protein: recombinant; tags: N-terminal polyhistidine and DsRed monomer fusion (pET32a); chain copies: 2; label: CyDye5-dUTP incorporated in the synthesized complementary strand; 3' TTTTT single-stranded linker to array surface; dsDNA, one strand shown. An outline of the steps:
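A custom Agilent array was converted to double-stranded form by primer extension with Cy5-dUTP and blocked with 2% BSA. Protein at 200 nM in PBS with 2% BSA, salmon testes DNA and 50 µM zinc acetate was applied for 1 h at 25 °C, followed by washing. The proteins were polyhistidine–DsRed N-terminal fusions of transcription factors, expressed in E. coli BL21-CodonPlus and Ni–NTA-purified. The binding signal is per-feature fluorescence intensity (arbitrary units) from an Axon 4000B scanner.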
Consider “GGAATGCAGCGCGAGAAGCCACGACGCGTAGTAGCTGGAGCGGAGTCACCTAGTGCAG”, for which the binding signal is 3220 fluorescence intensity (a.u.).

Turning to “GTACATATATGAATTGTGTGCGATAGCACGGCAATGATGACGGAGTCACCTAGTGCAG”, the binding signal was 3170 fluorescence intensity (a.u.).

With “TGAAGCTTCTCCGCGCGAAGGAGGCGGAGGTGGCGTCCGTCGGAGTCACCTAGTGCAG”, the binding signal was 3270 fluorescence intensity (a.u.).

Consider “AATGTACATAACACAAGCACATCTTGTATGACAAGGATTCCGGAGTCACCTAGTGCAG”, for which the binding signal is 3930 fluorescence intensity (a.u.).

For “CGACGCCTCGTCCTCGTCCGGTGCCTTCCAGCCTTGCGCACGGAGTCACCTAGTGCAG”, the binding signal was 25300 fluorescence intensity (a.u.).

On to “CGTATGTATACCATATCGATGTGTGACGTATATCGAAGGGCGGAGTCACCTAGTGCAG”, for which the binding signal is 3720 fluorescence intensity (a.u.).

Consider “AAGCTGCTGAGTTCACAGGACGTGTGAGTCAGCAAAGAAGCGGAGTCACCTAGTGCAG”, for which the binding signal was 9980 fluorescence intensity (a.u.).

With “TTCGGCGCCGTGGCGTCAGTCCGCCCCTACCGCCGCTCGACGGAGTCACCTAGTGCAG”, the binding signal was 4400 fluorescence intensity (a.u.).

On to “ATATACATATACATATATATACACACACACGTATACATAGCGGAGTCACCTAGTGCAG”, for which the binding signal is 4840 fluorescence intensity (a.u.).

Take “TGTCCCATCCGATACGACATGTCAGTCTCACTCCTCTCTTCGGAGTCACCTAGTGCAG”: the binding signal is 3360 fluorescence intensity (a.u.).

Take “AGAGGAGATGACGTTGTGCTTGCGCTCCCTGCACCGCCTTCGGAGTCACCTAGTGCAG”: the binding signal was 3970 fluorescence intensity (a.u.).

As to “AAACCGCCACGTCCCCTCTCCCGAAGCTCCCCACGGCCAGCGGAGTCACCTAGTGCAG”, the binding signal was 8240 fluorescence intensity (a.u.).

With “TTTGCGTGCGTGTGTTCATAGCGGTGAGTGCGCGTGCGTTCGGAGTCACCTAGTGCAG”, the binding signal was 6190 fluorescence intensity (a.u.).

Consider “TCCAAGCCGTCCACTCCCCTCCGATCCAACGGTCCAAACCCGGAGTCACCTAGTGCAG”, for which the binding signal was 21800 fluorescence intensity (a.u.).

Take “CTCCGTCGCTGACTGCAACCTCCACCCACACGGCACCCATCGGAGTCACCTAGTGCAG”: the binding signal was 3660 fluorescence intensity (a.u.).

Turning to “ATGCTATTATATAAGAGAAAATATAATGATGCTGGCCGTGCGGAGTCACCTAGTGCAG”, the binding signal is 3240 fluorescence intensity (a.u.).

For the sequence “GCCTGATGTGTTGATGTGCTGCTGTTCAGACTTTGAACCTCGGAGTCACCTAGTGCAG”, the binding signal was 3330 fluorescence intensity (a.u.).

In the case of “AGAGTGTTCAATTGTATACAGTTACCAATACAGCTAGTGTCGGAGTCACCTAGTGCAG”, the binding signal is 29700 fluorescence intensity (a.u.).

As for “GAGCGGTTGTTTGCTTAGTTGTATCAATTAGGTCTACACGCGGAGTCACCTAGTGCAG”, the binding signal was 3170 fluorescence intensity (a.u.).

For the sequence “GGTGAATGATCAAGATACGTATGGATTGCATGTTTGCTCACGGAGTCACCTAGTGCAG”, the binding signal was 3420 fluorescence intensity (a.u.).

As to “TTTTCTTCCCTTCTCACTCCTCCACGTCAGATTTGGCTGACGGAGTCACCTAGTGCAG”, the binding signal is 20600 fluorescence intensity (a.u.).

For the sequence “TTATATAATTGTCATGATGAATTACTGCCTTGTCATCTGACGGAGTCACCTAGTGCAG”, the binding signal was 23600 fluorescence intensity (a.u.).

In the case of “TAACGACCAATCGAGCCTACTAGTATAAATTGTACCTCGTCGGAGTCACCTAGTGCAG”, the binding signal is 31400 fluorescence intensity (a.u.).
